In PubChem BioAssay AID2551 (National Center for Advancing Translational Sciences (NCATS), 2010):
Out of some 310,000 compounds screened, about 17,000 (5.5%) were called active. Inconclusive results, whose numbers are uncertain, are shown with a selection of clear calls. Calls follow the shape of the dose curve; as a rule, active = well fitted inhibition curve with a large enough effect; inconclusive = small, poorly fitted or top-dose-only effect, or effect the other way; inactive = no such curve, though single readings can be large or run the other way. Potencies of inconclusive entries are doubtful fits and often do not repeat.

Chains of the proteins cited; added tags and fusions are not shown. Lines headed by an entry give the natural chain unless they say otherwise; changes in a name come on top.
UniProt P51450: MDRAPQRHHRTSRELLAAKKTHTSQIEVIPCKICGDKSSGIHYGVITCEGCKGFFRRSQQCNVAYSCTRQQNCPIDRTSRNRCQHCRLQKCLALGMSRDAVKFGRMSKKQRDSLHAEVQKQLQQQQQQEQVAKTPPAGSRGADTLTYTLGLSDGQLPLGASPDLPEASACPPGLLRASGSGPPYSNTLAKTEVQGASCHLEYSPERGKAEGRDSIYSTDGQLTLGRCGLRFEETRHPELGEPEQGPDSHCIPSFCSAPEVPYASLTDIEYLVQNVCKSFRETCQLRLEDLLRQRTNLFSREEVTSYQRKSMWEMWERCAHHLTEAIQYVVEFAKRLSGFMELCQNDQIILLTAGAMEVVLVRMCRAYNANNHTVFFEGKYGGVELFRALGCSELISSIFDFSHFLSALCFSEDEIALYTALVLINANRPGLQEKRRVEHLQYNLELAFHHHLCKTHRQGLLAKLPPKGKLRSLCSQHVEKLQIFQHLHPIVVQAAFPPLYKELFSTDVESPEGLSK

The compounds below were run against Nuclear receptor ROR-gamma (Mus musculus) (UniProt P51450) (assay: qHTS for inhibitors of ROR gamma transcriptional activity). Settings: Drosophila S2 Gal4-RORgamma UAS-luciferase reporter, 20 h; activity change, negative = inhibition: at 53.6 µM (top of the series).
Summary of the method: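 Drosophila Schneider cells stably carrying a metallothionein-driven Gal4 DBD–ROR gamma fusion and a UAS-Photinus luciferase reporter were exposed to compound for 1 hr, then induced with copper sulfate (700 uM final) for 20 hr at ambient temperature before luminescence reading.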
% is scaled to controls: 0 for no effect and ±100 for the full control effect; potency is read from the fitted curve at half-maximal effect.
Also: nearly all actives have a fitted effect of over 60% in size.

Compound | activity change, negative = inhibition | Potency
O=C(NCCN1CCOCC1)c1ccc(F)cc1 | inactive: -28.9% | –
COc1ccc(F)cc1CN1CCN(c2ncnc3scc(-c4ccccc4)c23)CC1 | inactive: -0.123% | –
O=C(Nc1nnc(-c2ccccc2Cl)o1)c1ccco1 | – | active: 2.82 µM
Cc1ccc(C(=O)NC(=S)NNS(=O)(=O)c2ccccc2)cc1 | – | active: 3.16 µM
Cc1ccc(Cl)cc1NC(=O)NCCN1CCCCC1 | inactive: -17.8% | –
CC1CCCN(C(=S)Nc2ccc(S(=O)(=O)N3CCCCC3)cc2)C1 (centres undefined) | – | inconclusive: 12.6 µM [inhibitor, single point]
CN(C(=O)CSc1cc(C(=O)c2nccn2C)c2ccccc2n1)c1ccccc1 | inactive: 33.4% | –
CCn1nc(C)c(/C=N/NC(=S)Nc2ccc(Cl)cc2Cl)c1C | – | active: 1.78 µM
C[C@H]1COC(=O)[C@H]2CCCN2C(=O)[C@@H](C)COC(=O)[C@H]2CCCN2C1=O | inactive: -10.8% [at 10 µM] | –
Cc1cc(F)ccc1S(=O)(=O)Nc1ncnc2sccc12 | – | inconclusive: 6.31 µM [activator, partial curve, poor fit]
N#Cc1c(N2CCCCC2)nc(N)c2c(N)nc3c(c12)CC(CCl)O3 (centres undefined) | – | inconclusive: 35.5 µM [inhibitor, single point]
O=C1CCC(=O)N1c1ccccc1-c1ccccc1 | – | inconclusive: 0.126 µM [inhibitor, single point]
CCN(CC)S(=O)(=O)c1ccc(N2CCN(CCOc3ccc(OC)cc3)CC2)nc1 | – | inconclusive: 31.6 µM [activator, single point]
C/C(CC(=O)Nc1ccc(N(C)C)cc1)=N\NC(=O)c1ccccn1 | – | inconclusive: 35.5 µM [inhibitor, single point]
CN(C)c1ccc(/C=N\NC(=O)c2csnn2)cc1 | – | inconclusive: 35.5 µM [inhibitor, single point]
CCOC(=O)c1c(NC(=O)CSc2nnnn2C)sc(CC)c1C | – | inconclusive: 0.141 µM [inhibitor, single point]
CCOc1ccc(/C=C2\SC(=O)N(CCNC(=O)C3COc4ccccc4O3)C2=O)cc1OC (centres undefined) | – | inconclusive: 28.2 µM [activator, single point]
CC(=O)O[C@@H]1[C@@H](O)CN[C@@H]1Cc1ccccc1 | – | active: 0.501 µM
Cc1ccc(/C=N/Nc2nc(Cl)c(Cl)cc2Cl)s1 | – | active: 11.2 µM
c1ccc(NC2=NCCN2CCC2CCCCC2)cc1 | inactive: -0.386% | –
O=C(O)c1cccc(Cn2c(Cl)c(/C=N/NC(=O)c3ccc(O)cc3)sc2=O)c1 | – | inconclusive: 25.1 µM [inhibitor, single point]
Cc1ccc(S(=O)(=O)C(C#N)c2nc3ccccc3nc2OCCO)cc1 (centres undefined) | – | inconclusive: 14.1 µM [activator, single point]
Cc1cc(C)c(C#N)c(OCC(=O)c2ccc(Br)cc2)n1 | – | inconclusive: 15.8 µM [activator, partial curve]
O=C(N1CCN(c2ccccn2)CC1)C(Cl)(Cl)Cl | – | inconclusive: 20 µM [activator, single point]
CC(C(=O)Nc1cccnc1)c1ccc([N+](=O)[O-])cc1 (centres undefined) | – | inconclusive: 10 µM [activator, single point]

Compound | activity change, negative = inhibition | Potency
O=C(Nc1ccc2nn(-c3ccccc3)nc2c1)c1ccco1 | – | inconclusive: 1 µM [activator, full curve, poor fit]
Cc1ccc(S(=O)(=O)N2CCC(=O)N(CCOCc3cccc(C(F)(F)F)c3)CC2)cc1 | – | inconclusive: 22.4 µM [activator, partial curve]
O=C1c2ccc(Br)cc2C(=O)N1c1ccc(Cc2ccncc2)cc1 | – | inconclusive: 3.16 µM [inhibitor, single point]
CC(C)CNC(=O)NC(=O)COC(=O)c1ccccc1Sc1ccc(C(F)(F)F)cc1[N+](=O)[O-] | – | inconclusive: 12.6 µM [activator, partial curve]
CCOc1cc(/C=C2/C(=N)N3N=C(C)SC3=NC2=O)ccc1OS(=O)(=O)c1ccc(C)cc1 | – | inconclusive: 10 µM [activator, partial curve, poor fit]
COc1ccc(C2=NN(C(C#N)c3ccc(OC)cc3)C(c3ccccc3)C2)cc1 (centres undefined) | – | inconclusive: 14.1 µM [inhibitor, single point]
CC(C)(C)C(=O)NC(=S)NNC(=O)c1ccc(-c2ccccc2)cc1 | – | inconclusive: 22.4 µM [inhibitor, single point]
N#CC1=C(N)N2C(=C(C#N)C1c1cccc(Br)c1)Nc1ccccc12 (centres undefined) | – | inconclusive: 3.55 µM [activator, partial curve]
COc1ccccc1C1=NNC(=NCc2ccccc2)SC1 | – | active: 11.2 µM
COc1cc(/C=C2\C(=O)ON=C2c2ccccc2)cc(Br)c1O | – | inconclusive: 35.5 µM [inhibitor, single point]
COc1ccc(Nc2nc(N)nc(CSC(=S)N3CCC(C)CC3)n2)cc1 | – | inconclusive: 22.4 µM [inhibitor, single point]
Cc1ccccc1OCC(=O)Nc1ccccc1N1CCOCC1 | inactive: 14.9% | –
Cc1nn2c(N3CCCC3)cc(C(C)C)nc2c1-c1ccccc1 | – | active: 14.1 µM
Cc1ccc(S(=O)(=O)N(C)/C(=N/S(=O)(=O)c2ccccc2)c2ccccc2)cc1 | inactive: 1.87% | –
O=[N+]([O-])c1cccc(-c2n[nH]c(=S)n2-c2ccccc2)c1 | – | active: 7.08 µM
COc1cc(/C=N/NC(=O)c2cc3ccccc3cc2O)ccc1OCCN1CCCCC1 | – | inconclusive: 35.5 µM [inhibitor, single point]
O=C(NCc1cccs1)C1CCCN1S(=O)(=O)c1ccccc1F (centres undefined) | – | inconclusive: 25.1 µM [inhibitor, single point]
CCOC(=O)c1c(C)c(C(=O)NCc2ccccn2)c(C)n1CC | – | inconclusive: 35.5 µM [inhibitor, single point]
Cc1ccc2nc(-c3ccccn3)[nH]c2c1 | – | active: 3.98 µM
CC(O)c1nc2ccccc2n1Cc1ccccc1 (centres undefined) | inactive: -18.5% | –
COc1ccc(-n2nnnc2Sc2ccc(S(=O)(=O)N3CCOCC3)cn2)cc1 | – | inconclusive: 11.2 µM [inhibitor, single point]
O=C(CNc1ccc(F)cc1)N/N=C/c1c(O)ccc2ccccc12 | – | active: 1.26 µM
CCC(Nc1ncnc2ccc(-c3c(C)noc3C)cc12)c1ccccc1 (centres undefined) | – | inconclusive: 3.16 µM [inhibitor, partial curve, poor fit]
CCc1ccc2c(c1)C(NC(C)=O)C(=O)N2CC (centres undefined) | inactive: -34.3% | –
O=C(Nc1cccc(NC(=O)c2cccc([N+](=O)[O-])c2)n1)c1cccc([N+](=O)[O-])c1 | – | inconclusive: 0.447 µM [activator, single point]

Compound | activity change, negative = inhibition | Potency
CCOC(=O)CNC(=O)CSc1ccc(-c2nc3ccccc3[nH]2)cn1 | – | inconclusive: 0.501 µM [activator, single point]
CN(C)c1ccc(P(=O)(OC2CCCCC2)C(Nc2ccccc2)c2cccnc2)cc1 (centres undefined) | inactive: 23.3% | –
CC1Cc2nc(SCC(=O)Nc3nccs3)n(Cc3ccccc3)c(=O)c2S1 (centres undefined) | – | inconclusive: 35.5 µM [activator, single point]
CC(C)(C)c1cc(C(=O)NNC(=O)c2ccc(C(F)(F)F)cc2)no1 | inactive: -22.2% | –
S=c1[nH]nc(-c2ccc(Cl)cc2Cl)n1-c1ccc2c(c1)OCCO2 | – | active: 3.55 µM
CC(C)C(=O)SCCCCCCC(=O)Nc1nc(-c2ccccc2)cs1 | inactive: -7.36% | –
Cc1nn(CCOc2ccccc2)c(=O)n1-c1ccccc1F | – | inconclusive: 31.6 µM [inhibitor, single point]
O=C(CC(c1ccco1)S(=O)(=O)c1ccccc1)c1ccc(F)cc1 (centres undefined) | – | active: 2.51 µM
CCOC(=O)Cn1nc(-c2ccc(F)cc2)oc1=O | – | inconclusive: 0.0056 µM [activator, full curve, poor fit]
Cc1oc(=O)c(NC(=O)c2cccc(Cl)c2)cc1C(=O)c1ccccc1 | – | active: 4.47 µM
O=C(CN1CCCC1)N/N=C/c1c(O)ccc2ccccc12 | – | active: 3.16 µM
N#CCCn1cc(/C=C2\NC(=S)N(c3ccccc3)C2=O)c(-c2ccc(F)cc2)n1 | – | inconclusive: 7.94 µM [inhibitor, partial curve]
Cc1ccc(NC(=S)NCCN2CCOCC2)cc1F | – | inconclusive: 35.5 µM [inhibitor, single point]
CCOc1ccc(CNc2ccc(N3CCN(Cc4ccccc4)CC3)cc2)cc1 | – | inconclusive: 20 µM [activator, single point]
CCn1c(SCC(N)=O)nc2c1c(=O)n(C)c(=O)n2C | – | inconclusive: 3.98 µM [inhibitor, single point]
O=c1oc2ccccc2cc1-c1cn2cccnc2n1 | – | inconclusive: 35.5 µM [inhibitor, single point]
COc1ccc(NC(=O)CSc2nc3cccnc3n2C)cc1 | – | inconclusive: 4.47 µM [activator, partial curve]
O=C(CN1CCN(S(=O)(=O)c2ccccc2)CC1)Nc1cccc(C(F)(F)F)c1 | inactive: -0.0251% | –
Cc1ccccc1OCCCn1c(CO)nc2ccccc21 | inactive: -30.1% | –
CSCC(=O)N1CCCC(CO)(Cc2ccccc2C)C1 (centres undefined) | – | inconclusive: 11.2 µM [activator, partial curve]
O=c1[nH][nH]c(=S)n1C1CCCCC1 | – | active: 11.2 µM
Cc1ccc2c(c1)COc1c3ccc(C(=O)N4CCOCC4)cc3nn1-2 | inactive: -24.4% | –
CC1C(=O)CCC1(C(=O)O)c1ccccc1 (centres undefined) | inactive: -7.86% | –
CCOc1ccc(N(C(=O)c2cnsn2)C(C(=O)NC2CCCCC2)c2ccncc2)cc1 (centres undefined) | – | inconclusive: 20 µM [activator, single point]

Part of the list above in order of length of the SMILES, rising.
Compound | activity change, negative = inhibition | Potency
Cc1nn(CCOc2ccccc2)c(=O)n1-c1ccccc1F | – | inconclusive: 31.6 µM [inhibitor, single point]
O=C(CN1CCCC1)N/N=C/c1c(O)ccc2ccccc12 | – | active: 3.16 µM
CC(C)(C)c1cc(C(=O)NNC(=O)c2ccc(C(F)(F)F)cc2)no1 | inactive: -22.2% | –
CN(C)c1ccc(P(=O)(OC2CCCCC2)C(Nc2ccccc2)c2cccnc2)cc1 (centres undefined) | inactive: 23.3% | –
CCOc1ccc(N(C(=O)c2cnsn2)C(C(=O)NC2CCCCC2)c2ccncc2)cc1 (centres undefined) | – | inconclusive: 20 µM [activator, single point]
